# Experimental data: PubChem BioAssay AID504764 (Drosophila RNAi Screening Center, 2011)
# Screen: 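Knock-downs that raise or lower a Notch target reporter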 (primary screen)
# System: Drosophila Kc167 cells
# Reagent: long dsRNA against Drosophila genes
# Duration: about 5 days (4 days dsRNA, then 24 h after transfection)
# Challenge: transfection of constitutively active membrane-tethered Notch lacking the extracellular domain, read 24 h later
# Measurement: 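Light from a Notch-responsive E(spl)m3 luciferase reporter under active Notch, with control-promoter and no-Notch reporter wells to normalise; raw counts from paired wells a and b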
# Direction: induced reporter light, run 1, well a and induced reporter light, run 1, well b: higher = more light from the Notch target reporter with active Notch; control promoter light, run 1, well a and control promoter light, run 1, well b: higher = more light from the viral control promoter (cell number, transfection, viability); uninduced reporter light, run 1, well a: higher = more light from the Notch target reporter without active Notch
# Hit rule: 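Hit if the duplicate-averaged log2 ratio of induced to control-promoter light gives a plate-wise z beyond ±2, or induced to uninduced beyond ±1.8; weak-control or discordant-duplicate wells dropped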
# Meaning of the calls: active = modifier hit (raised or lowered Notch signal); inactive = not a hit
# The deposit covers about 22,000 reagents; below is an unselected part of those that have a named target and a result. Over the whole deposit, 403 (1.9%) got an active call. 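Unnormalised raw counts per well; ratio z-scores behind the hit calls and whether each hit raises or lowers signal are not deposited.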 Reagents against one gene are numbered here. A plus sign joins genes that one reagent is predicted to hit. Not stated in the record: the amount of reagent.
Target gene,reagent,"induced reporter light, run 1, well a","induced reporter light, run 1, well b","control promoter light, run 1, well a","control promoter light, run 1, well b","uninduced reporter light, run 1, well a",outcome
Bub1,1,13750,17660,9805,11000,5650,inactive
Abca3,1,78370,83195,89245,98610,9470,inactive
Synj,1,2.20e5,2.11e5,1.65e5,1.76e5,14078,inactive
CG11029,1,1.53e5,1.12e5,1.14e5,1.64e5,7285,inactive
CG31245,1,1.58e5,1.44e5,1.56e5,1.67e5,10945,inactive
CG30116,1,75015,88435,1.77e5,1.48e5,7465,inactive
CG30116,2,1.18e5,91480,86510,92375,8500,inactive
CG30411,1,87580,97755,1.34e5,1.30e5,5070,inactive
Cyt-b5-r,1,1.67e5,1.76e5,1.85e5,2.03e5,11935,inactive
IKKbeta,1,1.87e5,1.95e5,2.38e5,3.34e5,19285,inactive
CG40948 (retired record),1,2.42e5,2.07e5,3.24e5,3.73e5,18710,inactive
Dis3l2,1,78870,70890,1.43e5,1.27e5,7480,inactive
mre11,1,2.64e5,2.53e5,2.60e5,2.58e5,18705,inactive
CG31534 (retired record),1,1.03e5,1.41e5,73630,94020,10540,inactive
CG31534 (retired record),2,34710,38560,43610,35865,3010,inactive
CG5597,1,1.14e5,1.61e5,91485,1.24e5,8275,inactive
CG42813 + CG42814,1,1.80e5,1.71e5,2.31e5,2.38e5,13505,inactive
CG42813 + CG42814,2,1.34e5,1.28e5,1.80e5,1.55e5,11615,inactive
pip,1,1.29e5,1.00e5,1.04e5,79325,8765,inactive
CG11608,1,8185,9270,10765,12350,3355,inactive
tHMG2,1,1.66e5,1.88e5,1.91e5,1.84e5,12715,inactive
CG31128,1,1.72e5,1.51e5,1.58e5,1.59e5,14815,inactive
CG32437,1,1.24e5,99075,1.18e5,92820,6850,inactive
dpr1,1,1.02e5,1.27e5,1.32e5,1.31e5,8982,inactive
dpr1,2,1.27e5,1.48e5,1.78e5,2.05e5,7250,inactive
CG9044,1,1.83e5,1.75e5,1.63e5,1.64e5,12875,inactive
dpr17,1,1.78e5,2.14e5,2.68e5,2.62e5,16515,inactive
dpr17,2,88765,78805,89235,49950,4015,inactive
dpr17,3,73770,70365,51140,59000,3530,inactive
E(var)3-9,1,65315,85980,63730,41935,8215,inactive
cysu,1,24320,25195,23715,26150,1985,inactive
unc-104,1,1.01e5,87955,1.10e5,1.01e5,7590,inactive
pAbp,1,17535,15115,32735,31655,1675,inactive
CG8206,1,1.44e5,1.30e5,2.06e5,1.31e5,10495,inactive
E(spl)m5-HLH,1,1.49e5,1.64e5,1.92e5,2.23e5,12478,inactive
Rhau,1,1.46e5,1.56e5,1.39e5,1.30e5,11240,inactive
Tcs5,1,2.19e5,2.06e5,3.20e5,2.67e5,11145,inactive
CG32032,1,1.41e5,1.94e5,2.21e5,2.24e5,12715,inactive
CG15533,1,1.26e5,1.13e5,1.73e5,1.70e5,12335,inactive
CRAT,1,58710,86970,59905,66410,6715,inactive
mRpS30,1,82375,1.11e5,1.07e5,1.14e5,5740,inactive
Coq7 + shf,1,1.91e5,1.41e5,2.33e5,2.24e5,12435,inactive
CG2104,1,1.57e5,1.65e5,1.37e5,1.25e5,8890,inactive
CG18480,1,3.49e5,2.67e5,2.98e5,2.92e5,21320,inactive
slgA,1,1.42e5,1.57e5,1.27e5,62000,9090,inactive
CG11593,1,1.30e5,1.15e5,1.63e5,1.74e5,8275,inactive
Lfg,1,82855,1.06e5,1.18e5,1.39e5,8855,inactive
pico,1,1.10e5,1.05e5,1.04e5,1.17e5,10355,inactive
CG7460,1,1.77e5,1.48e5,2.09e5,2.25e5,10780,inactive
CG17202,1,1.04e5,1.04e5,1.20e5,81205,6835,inactive
skd,1,27755,22250,19465,20292,2580,inactive
CG5623,1,2.28e5,2.81e5,2.10e5,2.31e5,17260,inactive
CG13748,1,1.75e5,2.10e5,2.08e5,2.30e5,17395,inactive
CG5199,1,1.38e5,1.48e5,1.54e5,1.25e5,8295,inactive
CG6805,1,1.18e5,1.15e5,1.92e5,2.24e5,8250,inactive
CG14752,1,1.83e5,1.86e5,2.55e5,2.68e5,15700,inactive
spict,1,2.23e5,2.37e5,1.79e5,1.97e5,15425,inactive
Mco1,1,1.19e5,1.33e5,69775,82610,15245,inactive
Reg-2,1,88550,1.09e5,1.81e5,2.23e5,8815,inactive
crim,1,1.53e5,1.49e5,78580,22015,9420,active
CG2854,1,1.13e5,1.21e5,1.79e5,1.48e5,8340,inactive
sug,1,1.99e5,1.81e5,2.28e5,1.88e5,14510,inactive
Tektin-C,1,1.59e5,1.50e5,2.15e5,1.95e5,8055,inactive
CG15253,1,1.97e5,1.92e5,1.70e5,2.21e5,17535,inactive

Called active (from the list above):
Target gene,reagent,"induced reporter light, run 1, well a","induced reporter light, run 1, well b","control promoter light, run 1, well a","control promoter light, run 1, well b","uninduced reporter light, run 1, well a",outcome
crim,1,1.53e5,1.49e5,78580,22015,9420,active
